Experimental data published in US6566489.
No constants are given. Whether binding was seen depends on the method and setting. In cells and extracts the contact can be indirect. Some results given as binding are weak or reduced against the parent protein; the word gives no strength. For some of these results: Tags and fused reporters may be left off the sequences shown.

By UniProt entry, the sequences of proteins in these tests, tags left out.
UniProt P49024: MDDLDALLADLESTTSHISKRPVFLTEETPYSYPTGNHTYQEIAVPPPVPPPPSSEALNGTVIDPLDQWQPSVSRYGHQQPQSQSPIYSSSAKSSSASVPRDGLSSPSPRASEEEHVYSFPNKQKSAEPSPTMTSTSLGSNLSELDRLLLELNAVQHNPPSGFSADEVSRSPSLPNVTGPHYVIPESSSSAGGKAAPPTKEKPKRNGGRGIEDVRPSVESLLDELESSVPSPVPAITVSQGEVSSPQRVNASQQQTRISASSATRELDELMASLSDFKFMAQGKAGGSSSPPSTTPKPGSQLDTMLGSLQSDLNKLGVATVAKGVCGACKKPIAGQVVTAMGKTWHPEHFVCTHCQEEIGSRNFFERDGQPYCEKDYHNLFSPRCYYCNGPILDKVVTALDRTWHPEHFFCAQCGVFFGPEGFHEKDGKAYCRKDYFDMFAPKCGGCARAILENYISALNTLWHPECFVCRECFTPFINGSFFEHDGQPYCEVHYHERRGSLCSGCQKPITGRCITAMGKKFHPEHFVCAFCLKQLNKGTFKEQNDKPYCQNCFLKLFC

Assays:
[1] = biological target: GST-S4BP fusion protein (bacterially expressed, immobilized on glutathione agarose beads) (chicken) [GST: P08515]; assay: pull-down of soluble pMal-syndecan on GST-S4BP beads, western blot with CS4E
[2] = biological target: GST-S4BP fusion protein (bacterially expressed, immobilized on glutathione agarose beads) (chicken) [GST: P08515]; assay: pull-down on immobilized GST-S4BP (deletion mutant series)
[3] = biological target: GST-S4BP fusion protein (bacterially expressed, immobilized on glutathione agarose beads) (chicken) [GST: P08515]; assay: pull-down of soluble pMal-syndecan on GST-S4BP beads (chimera series)
[4] = biological target: T1, syndecan-4, endogenous protein of chicken embryo fibroblasts (chicken) (UniProt P49416); assay: co-immunoprecipitation from chick embryo fibroblast lysates with anti-syndecan-4 (CS4E), western blot with anti-S4BP
T1 sequence (looked up): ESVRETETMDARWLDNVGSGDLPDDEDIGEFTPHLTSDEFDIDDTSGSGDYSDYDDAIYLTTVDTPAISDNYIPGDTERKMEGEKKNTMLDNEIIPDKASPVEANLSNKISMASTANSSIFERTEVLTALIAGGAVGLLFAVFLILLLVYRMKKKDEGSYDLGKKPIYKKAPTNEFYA

[5] = biological target: paxillin, endogenous protein of chicken embryo fibroblasts (chicken) (UniProt P49024); assay: co-immunoprecipitation from serum starved CEFs after TPA treatment
[6] = biological target: paxillin, endogenous protein of chicken embryo fibroblasts (chicken) (UniProt P49024); assay: co-immunoprecipitation from normal non-serum starved CEFs
[7] = biological target: T1, syndecan-4, endogenous protein of chicken embryo fibroblasts (chicken); assay: co-immunoprecipitation from serum starved CEFs in the first five minutes after TPA treatment

Measured: binding

B1: pMal/syndecan-4 fusion protein, full length syndecan-4 core protein (S-4) (protein, avian, UniProt P49416 20-197, looked up, not shown: large carriers)
chain: ESVRETETMDARWLDNVGSGDLPDDEDIGEFTPHLTSDEFDIDDTSGSGDYSDYDDAIYLTTVDTPAISDNYIPGDTERKMEGEKKNTMLDNEIIPDKASPVEANLSNKISMASTANSSIFERTEVLTALIAGGAVGLLFAVFLILLLVYRMKKKDEGSYDLGKKPIYKKAPTNEFYA
binds: [1] | [2] | [3]

B2: S4BP, endogenous protein of chicken embryo tissues and chicken embryo fibroblasts (CEFs) (protein)
chain: GVMAAVGALPAGAGSLPPLPTLGVPGVPELKPLTRYEAMRLGPGWSHSCHAMLYAPNPGMLFGRIPLRYAVLMQMRFDGLLGFPGGFVDRRYWSLEDGLNRVLGLGLGCVRLTEADYLCSHLTDGPHRVVAHLYARQLTLEELHTIEISAVHSRDHGLEVMGMVRVPLYTQKDRMGGLPNFLANSFVGTAKFQLLFALKILNMVPEEKLAEAVAATQKPKKPAIDHAAVAAAKQANELAAAARAGNEYADSGENQAAAHAAAELAEQQAAGLESQAVLEHLAAVPGAEAVVAELHAQPGADAVLEQPVAEAME
modifications: can be myristoylated (glycine following the second or third methionine)
binds: [4] | [5] | [6] | [7]
